Assay results reported in patent US20080118978A1 (published 2008).
Results are given in words; binding and its absence hold for the method and conditions named. Some entries that bind do so weakly or less than the wild type.

Amino acid sequences for entries named in this document (tags omitted). A change or cut given only in a name is not applied to a line headed by its entry.
UniProt P08473: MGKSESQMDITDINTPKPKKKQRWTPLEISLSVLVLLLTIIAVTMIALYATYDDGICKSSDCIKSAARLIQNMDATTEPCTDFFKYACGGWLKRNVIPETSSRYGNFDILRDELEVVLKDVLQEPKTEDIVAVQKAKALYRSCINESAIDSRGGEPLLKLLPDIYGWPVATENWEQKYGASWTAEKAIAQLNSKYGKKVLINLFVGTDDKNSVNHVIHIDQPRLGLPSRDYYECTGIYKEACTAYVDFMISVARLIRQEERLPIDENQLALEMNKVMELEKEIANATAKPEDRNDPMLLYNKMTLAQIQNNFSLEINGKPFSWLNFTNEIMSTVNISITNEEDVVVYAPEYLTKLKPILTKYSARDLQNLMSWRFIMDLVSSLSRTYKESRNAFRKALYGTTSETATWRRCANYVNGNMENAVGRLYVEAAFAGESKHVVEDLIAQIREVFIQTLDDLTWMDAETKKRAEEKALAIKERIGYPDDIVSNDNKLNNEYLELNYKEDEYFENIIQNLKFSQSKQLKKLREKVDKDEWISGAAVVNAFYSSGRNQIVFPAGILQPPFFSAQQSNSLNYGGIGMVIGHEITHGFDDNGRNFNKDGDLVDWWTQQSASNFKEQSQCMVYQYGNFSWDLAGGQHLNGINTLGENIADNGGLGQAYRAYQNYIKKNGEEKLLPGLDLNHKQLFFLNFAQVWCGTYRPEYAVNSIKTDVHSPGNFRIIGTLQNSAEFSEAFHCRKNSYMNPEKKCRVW

Biological target: T1, CD10 (human, UniProt P08473 2-750)
T1 construct: Endogenous CD10 of human cell lines: on Raji, RTX/Raji and Ramos cells in flow cytometry; In the ELISA it was a Triton X-100-dissolved membrane fraction of SBC-3 cells coated on the plate; also called CALLA; neutral endopeptidase
Test: flow cytometry (mean fluorescence intensity) on Ramos cells from excised xenografts

binding: binds
B1: mouse anti-CD10 antibody NL-1 (antibody, V domains shown)
VH: DVQLVESGGGLVQPGGSRKLSCAASGFTFSSFGMHWVRQAPEKGLEWVAYISGGSYTIYYADTVKGRFTISRDNPKNTLFLQMTSLRSEDTAMYYCASSYGNFWYFDVWGAGTTVTVSS
VL: EIVLTQSPALMAASPGEKVTIACSVSSSISSSNLHWYQQKSETSPKPWIYGTSNLASGVPVRFSGSGSGTSYFLTISSMEAEDAATYYCQQWSSYPLTFGGGTKLEIK
notes: Mouse hybridoma antibody; H chain cloned with a mouse Cgamma2a probe and L chain with a Ckappa probe; also called anti-CD10 mouse antibody NL-1
